Patent publication US20220206013A1, “CYSTIC FIBROSIS URINE TEST” (Aarhus Universitet, priority 2019, published 2022)

Test system: Pendrin WT and KO mice
Experiment: Secretin-induced urine alkalisation and urine HCO3− excretion in anaesthetized pendrin WT/KO mice
Type: in vivo, mouse
Conditions: 10 μg/25 g BW i.p.
Description: Induction of anaesthesia was performed with i.p. injection of […] of a ketamine-xylazine mix (10 mg/ml and 1 mg/ml). An i.v. access was obtained by cannulation of one tail vein and the animals were kept in anaesthesia by a continuous rate infusion (CRI) corresponding to half of the induction dose pr. hour. Mice were infused with a solution containing 145 mM NaCl at pH 7.4 with a perfusion rate of 0.1 ml h^−1 via a syringe pump (Model 33 Twin syringe pump, Harvard Apparatus, USA).
Bladder catheterization was introduced and urine was collected every 5 minutes. Urinary pH was measured continuously throughout the experiment by placement of a micro pH electrode (pH-200, Unisense, Aarhus, DK) in the outflow of the catheter and the reference electrode was placed into the suprapubic operation wound (see FIG. 7A). Following a 30-min. control period, mice were injected intraperitoneally with either secretin (10 μg/25 g BW) or saline.
The urine was collected and pooled for 30 minutes allowing measurement of mean [HCO3^−] in the time periods 0-30, 30-60 and 60-90 after starting the experiment. In experiments with too low urine output, urine was pooled to allow analysis of [HCO3^−] before and after secretin application. Measurements were performed by a Corning 960 analyser (Savory et al. 1978) and calibrated to small volume samples of 50 μl or alternatively by a custom built infrared CO2-sensor based system for smaller volume samples (Trepiccione et al. 2017) (10-40 μl).
All values are presented as mean values ±standard error of mean (SEM). Due to a low number of observations in each series, n=7 in most, we were not able to determine whether the data followed a Gaussian distribution. Therefore, two-tailed Wilcoxon matched pairs signed rank test, in paired data, and two-tailed Mann-Whitney test, in unpaired data, were performed to test for significance.

Substance: secretin
- time of maximal urine alkalisation after secretin application (WT mice): 20 to 30 min
- lag time to urinary alkalization (pendrin WT mice): approximately 5 minutes
- time to peak mean alkalisation (pendrin WT mice): ~25 min
